Laboratory results: PubChem BioAssay AID1159584 (Peter MacCallum Cancer Centre, 2016)

Aim: 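Knock-downs that harm CDH1-null cells more than parental MCF10A cells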 (primary screen)
System: human MCF10A breast epithelial cells, parental and CDH1-null
Knock-down reagent: siRNA against human genes
Detection: 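Cell viability by CellTiter-Glo ATP luminescence, each line scaled to the mean of mock wells across plates, then CDH1-null over parental ratio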
Reading the numbers: CDH1-null / parental viability ratio: higher = CDH1-null cells survive relatively better than parental
Here is one part, drawn at random, of about 18,000 reagents tested. The numbers tell different reagents against one gene apart. Not all columns of the deposit are shown. Not given: the amount of reagent, the time to read-out.

OARD1 scored CDH1-null / parental viability ratio 1.24.
RNASEH1 gave CDH1-null / parental viability ratio 0.97.
Depletion of INPP5E resulted in: CDH1-null / parental viability ratio 1.22.
HDAC4 showed CDH1-null / parental viability ratio 0.84.
Depletion of FIBIN came out at: CDH1-null / parental viability ratio 0.83.
For KRTAP22-1, the entry reads CDH1-null / parental viability ratio 1.32.
Against ZNF664, the values are CDH1-null / parental viability ratio 0.99.
For NAE1, the entry reads CDH1-null / parental viability ratio 0.89.
After knock-down of PSD4, the screen gave CDH1-null / parental viability ratio 0.82.
Silencing of ANAPC16 resulted in: CDH1-null / parental viability ratio 1.07.
For CXCL16, the entry reads CDH1-null / parental viability ratio 1.41.
TRMT9B gave CDH1-null / parental viability ratio 0.73.
CLPSL1 scored CDH1-null / parental viability ratio 1.11.
For TMEM169 the deposit lists CDH1-null / parental viability ratio 1.11.
Against MYL5 the deposit lists CDH1-null / parental viability ratio 1.19.
TLR8 gave CDH1-null / parental viability ratio 1.07.
With knock-down of SHISA5 the results were CDH1-null / parental viability ratio 0.63.
Against GRB10, the values are CDH1-null / parental viability ratio 0.85.
Knock-down of PNMA8A resulted in: CDH1-null / parental viability ratio 0.99.

Not a retest: an excerpt of the list.
KRTAP22-1 — CDH1-null / parental viability ratio = 1.32
ZNF664 — CDH1-null / parental viability ratio = 0.99

Additional records follow:
PARD6G showed CDH1-null / parental viability ratio 0.92.
Depletion of MATK resulted in: CDH1-null / parental viability ratio 0.98.
With knock-down of ANGPTL4, the record shows CDH1-null / parental viability ratio 1.03.
For SEC23IP, the entry reads CDH1-null / parental viability ratio 0.74.
Depletion of ITIH3 resulted in: CDH1-null / parental viability ratio 0.95.
TMEM190 gave CDH1-null / parental viability ratio 1.36.
For PPP1R12A, the entry reads CDH1-null / parental viability ratio 1.39.
Depletion of PRR23B resulted in: CDH1-null / parental viability ratio 1.04.
ZNF329 gave CDH1-null / parental viability ratio 0.95.
After knock-down of RPL15 the results were CDH1-null / parental viability ratio 1.12.
Silencing of RNF217 gave: CDH1-null / parental viability ratio 0.92.
Depletion of CTR9 resulted in: CDH1-null / parental viability ratio 0.79.
MTERF3 scored CDH1-null / parental viability ratio 0.81.
Silencing of MICAL2 #1 gave: CDH1-null / parental viability ratio 1.06.
After knock-down of MICAL2 #2, the record shows CDH1-null / parental viability ratio 0.99.
FSTL1 scored CDH1-null / parental viability ratio 0.93.
GBP5 showed CDH1-null / parental viability ratio 1.56.
AP3M1 showed CDH1-null / parental viability ratio 1.03.
WASF3 showed CDH1-null / parental viability ratio 1.01.
Depletion of PSMG2 resulted in: CDH1-null / parental viability ratio 1.05.
With knock-down of CACNG3, the screen gave CDH1-null / parental viability ratio 1.23.
For CIB1, the values are CDH1-null / parental viability ratio 0.79.
Knock-down of SSH3 came out at: CDH1-null / parental viability ratio 1.45.
Against DUSP10, the entry reads CDH1-null / parental viability ratio 1.24.
With knock-down of ATOH7, the record shows CDH1-null / parental viability ratio 0.76.
For PHYH the deposit lists CDH1-null / parental viability ratio 1.04.
